Assay results as given in patent publication US20130309184A1, “1,3-DIOXAN-5-ONE COMPOUNDS” (MERCK PATENT GMBH, priority 2011, published 2013).

Test system: human stratum corneum
Experiment: Skin colouring test
[1] = dyed skin stored in water for one week

CCCCN(CCCC)c1ccc(/C=C2\OC(C)(OCC)O/C(=C\c3ccc(N(CCCC)CCCC)cc3)C2=O)cc1 (stereo not shown) [Example 8, (4Z,6Z)-4,6-bis[[(4-dibutylamino)phenyl]methylene]-2-ethoxy-2-methyl-1,3-dioxan-5-one]
colour of the piece of skin after incubation (0.6% solution, 48 h, tetrahydrofuran/ethylene glycol/phosphate buffer pH6=50/47/3): intense orange-red colour
visual colour impression after storage in water [1]: fully retained
washing-out of the colour [1]: No noticeable washing-out
change in colour after simulated sunlight compared with sample stored in the dark (solar simulator (Atlas CPS+), twice for one hour, 500 Wm2): no visually perceptible change in colour
